Positions count from the first letter of the chain named. The exact form of at least one protein or probe is not confirmed. For some of these results: The direction of at least one scale is not stated here. For some of these results: Protein sequences can lack the tags named with them.
Experiments:
Assay in all cases: EMSA
[1] = molecular target: Etv5 Ets domain oxidized dimer (human) (UniProt P41161); conditions: oxidized, estimate, no saturation; EMSA: 50 mM Tris-HCl pH 7.5, 50 mM NaCl, 2 mM MgCl2, 0.01% Tween 20, 5% glycerol, 1 h at room temperature; proteins reduced with 10 mM TCEP unless stated; 10% native PAGE; recombinant protein; residues 365-462; protein details: N-terminal His6 removed by TEV (leaves SM)
Etv1 Y397A (human) = molecular target: T1, Etv1 Y397A (human) (UniProt P50549); conditions: Discussion: complete loss of binding; EMSA: 50 mM Tris-HCl pH 7.5, 50 mM NaCl, 2 mM MgCl2, 0.01% Tween 20, 5% glycerol, 1 h at room temperature; proteins reduced with 10 mM TCEP unless stated; 10% native PAGE; recombinant protein; residues 326-429; protein details: N-terminal His6 removed by TEV (leaves SM)
T1 sequence (looked up): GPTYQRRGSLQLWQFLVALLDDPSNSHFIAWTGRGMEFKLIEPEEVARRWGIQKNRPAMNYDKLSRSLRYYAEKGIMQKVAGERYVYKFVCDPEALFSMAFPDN

By UniProt entry, the sequences of proteins in these tests, tags left out. Residues count along the entry.
UniProt P41161, 365-462: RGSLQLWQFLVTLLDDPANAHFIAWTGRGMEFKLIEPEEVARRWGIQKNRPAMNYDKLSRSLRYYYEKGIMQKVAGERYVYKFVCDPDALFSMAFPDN
UniProt P43268, 338-470: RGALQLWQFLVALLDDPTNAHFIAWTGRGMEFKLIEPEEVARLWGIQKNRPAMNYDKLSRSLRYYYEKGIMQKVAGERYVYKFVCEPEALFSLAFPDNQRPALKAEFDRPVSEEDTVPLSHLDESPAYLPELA

[2] = molecular target: Etv4 Ets domain oxidized dimer (human) (UniProt P43268); conditions: oxidized, estimate, no saturation; EMSA: 50 mM Tris-HCl pH 7.5, 50 mM NaCl, 2 mM MgCl2, 0.01% Tween 20, 5% glycerol, 1 h at room temperature; proteins reduced with 10 mM TCEP unless stated; 10% native PAGE; recombinant protein; residues 338-470; protein details: N-terminal His6 removed by TEV (leaves SM)
Etv1 Y396A (human) = molecular target: T2, Etv1 Y396A (human) (UniProt P50549); conditions: EMSA: 50 mM Tris-HCl pH 7.5, 50 mM NaCl, 2 mM MgCl2, 0.01% Tween 20, 5% glycerol, 1 h at room temperature; proteins reduced with 10 mM TCEP unless stated; 10% native PAGE; recombinant protein; residues 326-429; protein details: N-terminal His6 removed by TEV (leaves SM)
T2 sequence (looked up): T1 sequence (looked up) with Y71A, A72Y

[3] = molecular target: Etv1 WT dimer (purified oxidized) (human) (UniProt P50549); conditions: EMSA: 50 mM Tris-HCl pH 7.5, 50 mM NaCl, 2 mM MgCl2, 0.01% Tween 20, 5% glycerol, 1 h at room temperature, proteins reduced with 10 mM TCEP unless stated, 10% native PAGE, recombinant protein, residues 326-429, protein details: N-terminal His6 removed by TEV (leaves SM)

Question: With “ATCTCACCGGAAGTGTAGCA (double strand) [Etv1ALF/Etv1ALR EMSA probe]” as the sequence, how does the Kd [1] read?
Answer: Its Kd is 790 1e-10 M.

Question: What about the binding signal (fold reduction in affinity) (Etv1 Y397A (human)) of the same sequence?
Answer: Its binding signal (fold reduction in affinity) is greater than 1000.

Question: What about the Kd [2] of the same sequence?
Answer: Its Kd is 148 1e-10 M.

Question: What about the binding signal (fold reduction in affinity) (Etv1 Y396A (human)) of the same sequence?
Answer: Its binding signal (fold reduction in affinity) is greater than 1000.

Question: And the Kd ([3]; 0.1 nM probe, 1:9 GSH:GSSG)?
Answer: The Kd was 272 1e-10 M.

Question: And the Kd ([3]; 0.1 nM probe, 9:1 GSH:GSSG)?
Answer: The Kd was 171 1e-10 M.

Question: What about the Kd ([3]; 0.1 nM probe, dimer reduced with 10 mM TCEP) of the same sequence?
Answer: Its Kd is 2.6 1e-10 M.

Question: What about the Kd ([3]; 0.1 nM probe, oxidized, no TCEP) of the same sequence?
Answer: The Kd was 802 1e-10 M.

Question: And the Kd ([3]; 2 nM probe, dimer reduced with 10 mM TCEP)?
Answer: The Kd was 11.2 1e-10 M.

Question: And the Kd ([3]; 2 nM probe, oxidized, no TCEP)?
Answer: The Kd was 195 1e-10 M.
